No constants are given. Whether binding was seen depends on the method and setting. Binding seen in cells or lysates may run through a third protein. A yes stands for co-enrichment or nearness to the bait. Other partners may have been found.

The chains behind the UniProt entries cited, without tags or fusion partners.
UniProt P32958: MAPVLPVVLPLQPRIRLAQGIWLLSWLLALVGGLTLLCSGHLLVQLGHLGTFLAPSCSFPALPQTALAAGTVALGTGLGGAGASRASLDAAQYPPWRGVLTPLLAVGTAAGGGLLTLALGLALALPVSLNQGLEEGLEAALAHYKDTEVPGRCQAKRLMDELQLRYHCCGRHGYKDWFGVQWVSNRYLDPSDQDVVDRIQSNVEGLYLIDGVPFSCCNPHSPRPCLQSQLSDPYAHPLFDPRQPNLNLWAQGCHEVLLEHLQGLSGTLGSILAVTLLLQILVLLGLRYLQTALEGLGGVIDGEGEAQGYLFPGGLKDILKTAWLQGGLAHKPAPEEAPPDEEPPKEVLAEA

Test [1] concerns the target T1, Syntaxin-3 isoform B (Stx3) (mouse (endogenous in retina)) (UniProt Q64704).
T1 sequence: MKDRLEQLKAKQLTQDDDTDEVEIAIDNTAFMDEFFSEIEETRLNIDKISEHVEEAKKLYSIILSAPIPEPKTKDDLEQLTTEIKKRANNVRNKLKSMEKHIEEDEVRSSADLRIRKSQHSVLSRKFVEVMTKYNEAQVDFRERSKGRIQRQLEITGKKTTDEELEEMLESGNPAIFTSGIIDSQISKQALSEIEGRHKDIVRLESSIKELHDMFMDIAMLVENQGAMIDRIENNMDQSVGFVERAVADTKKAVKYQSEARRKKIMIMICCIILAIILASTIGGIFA
As to the kind of experiment: affinity purification with mass spectrometry; CHAPS-solubilized membrane pellet of WT mouse retinas; anti-Syn3B (Synaptic Systems) and protein A beads overnight at 4°C; elution with 1% SDS; LC-MS; non-specific IgG as negative control.

The target of test [2] is ROM-1 (rod outer segment protein 1) (mouse (endogenous in retina)) (UniProt P32958). As to the kind of experiment: affinity purification with mass spectrometry; CHAPS-solubilized membrane pellet of WT mouse retinas; RDS mAB 2E7 or ROM-1 mAB 2H5 chemically linked to sepharose 2B beads, 1 h at 4°C; elution with 1% SDS; LC-MS; rds-/- retinas as negative control.

B1: Peripherin-2 also known as RDS (retinal degeneration slow) (protein, UniProt P15499 1-346)
chain: MALLKVKFDQKKRVKLAQGLWLMNWLSVLAGIVLFSLGLFLKIELRKRSEVMNNSESHFVPNSLIGVGVLSCVFNSLAGKICYDALDPAKYAKWKPWLKPYLAVCIFFNVILFLVALCCFLLRGSLESTLAYGLKNGMKYYRDTDTPGRCFMKKTIDMLQIEFKCCGNNGFRDWFEIQWISNRYLDFSSKEVKDRIKSNVDGRYLVDGVPFSCCNPSSPRPCIQYQLTNNSAHYSYDHQTEELNLWLRGCRAALLNYYSSLMNSMGVVTLLVWLFEVSITAGLRYLHTALESVSNPEDPECESEGWLLEKSVPETWKAFLESFKKLGKSNQVEAEGADAGPAPEAG
Turning to B1, the binding result in test [1] and in test [2] was “binds” throughout.
